PubChem BioAssay AID504774 | Drosophila RNAi Screening Center | 2011
The deposit covers about 23,000 reagents; shown is an unselected part of those that have a named target and a result. 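Values are quantile-normalised luminescence on an arbitrary scale; higher means more cells surviving MMS.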 A plus sign joins genes that one reagent is predicted to hit. Not all columns of the deposit are shown.

- Aim: 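Knock-downs that shift viability of MMS-exposed cells relative to untreated ones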 (primary screen)
- Cells: Drosophila Kc167 cells
- Reagent: long dsRNA against Drosophila genes, about 0.25 µg dsRNA per well
- Timing: about 6 days: 3 days knock-down, then 3 days with or without MMS
- Conditions: methyl methanesulphonate 0.004% (w/v) for 3 days after knock-down
- Measurement: 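ATP-dependent luminescence as a measure of live cells in MMS-exposed wells, quantile normalised within each plate, with replicate values also given as a mean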
- Reading the numbers: mean viability with MMS: higher = more surviving cells after MMS

mean viability with MMS, by target gene and reagent
CG11200: DRSC06060 3.48e6
CG18213: DRSC15316 3.67e6
piwi (P-element induced wimpy testis): DRSC03592 3.52e6
CG32425: DRSC11739 2.85e6; DRSC11764 3.63e6
GluRS-m (Glutamyl-tRNA synthetase, mitochondrial): DRSC10431 3.73e6
CG17929: DRSC15291 3.51e6
CG34433: DRSC15077 3.58e6
CR42532 (pseudo): DRSC06713 3.46e6
CG30350: DRSC07690 3.63e6
Frl (Formin-like): DRSC09300 3.56e6; DRSC10027 3.49e6; DRSC10716 3.44e6
CG8675: DRSC20117 3.85e6
Tsf2 (Transferrin 2): DRSC09751 3.46e6
CG31200: DRSC15285 3.55e6
CG12035: DRSC08238 3.56e6
sr (stripe): DRSC13284 3.51e6; DRSC17067 3.12e6
Prosbeta6 (Proteasome beta6 subunit): DRSC11256 3.23e6
spn-A (spindle A): DRSC16812 3.34e6
tea (telomere ends associated): DRSC06110 3.43e6; DRSC06236 3.44e6
mRpS9 (mitochondrial ribosomal protein S9): DRSC12645 3.79e6; DRSC15456 3.76e6
Cyp313a3 (Cytochrome P450 313a3): DRSC16626 3.66e6
CG7856: DRSC04896 3.55e6
CG4575 (retired record): DRSC18372 3.50e6
CG30114: DRSC05707 3.43e6
LManVI (Lysosomal alpha-mannosidase VI): DRSC03224 3.55e6
CG13062: DRSC09945 3.54e6
Lcp65Ab2 + Lcp65Ab1: DRSC10340 3.57e6; DRSC10343 3.68e6
ATPCL (ATP citrate lyase): DRSC05913 3.78e6
CG11164: DRSC19392 3.40e6
CG12680: DRSC17871 3.53e6
sturkopf: DRSC08637 3.68e6
Egm (Enigma): DRSC07319 3.73e6; DRSC22860 3.25e6
CG13171: DRSC06299 3.59e6
CG7963: DRSC16355 3.69e6
CG11384: DRSC18628 3.43e6
CG9776: DRSC12127 3.43e6
pip (pipe): DRSC11382 3.62e6
CG34305: DRSC11995 3.76e6
Sas-6 (Spindle assembly abnormal 6): DRSC15061 3.68e6
TwdlX (TweedleX): DRSC19151 3.62e6
Dhod (Dihydroorotate dehydrogenase): DRSC16647 3.63e6
CG17977: DRSC06700 3.64e6
Eglp4 (Entomoglyceroporin 4): DRSC04438 3.60e6
AOX2 (Aldehyde oxidase 2): DRSC15338 3.75e6
plh (pasang lhamu): DRSC12294 3.37e6
Lnpk (Lunapark): DRSC07254 3.63e6
CG8028: DRSC20075 3.58e6
CG13917: DRSC08386 3.77e6
nop5: DRSC03582 3.33e6
al (aristaless): DRSC00799 3.46e6
CG1924: DRSC19823 3.64e6
CG9876: DRSC04586 3.55e6
CG33648: DRSC01387 3.64e6
CG15035: DRSC17967 3.49e6
CG15353: DRSC00383 3.52e6
Mcm7 (Minichromosome maintenance 7): DRSC11219 3.43e6
CG15115: DRSC06537 1.96e6
CG32582 (retired record): DRSC19114 3.67e6
CG18048: DRSC12573 3.64e6
Scsalpha1 (Succinyl-coenzyme A synthetase alpha subunit 1): DRSC08698 3.47e6
CG40006: DRSC03787 3.50e6; DRSC03809 3.55e6; DRSC03814 3.45e6; DRSC03817 3.54e6

8 successive records from above, for reference:
mean viability with MMS, by target gene and reagent
Frl (Formin-like): DRSC09300 3.56e6; DRSC10027 3.49e6; DRSC10716 3.44e6
CG8675: DRSC20117 3.85e6
Tsf2 (Transferrin 2): DRSC09751 3.46e6
CG31200: DRSC15285 3.55e6
CG12035: DRSC08238 3.56e6
sr (stripe): DRSC13284 3.51e6
